Test results from the supplement of paper PMC4604168 (melanoma cell lines).
Some of the results follow. Single values are uncertain, as repeats are few or missing.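 The apoptosis fraction was the count of cleaved-PARP antibody-stained nuclei relative to all DNA-stained nuclei, imaged in 1,536-well plates. Screening doses were set so most cells survived, and baseline and induced cleaved-PARP levels vary greatly across cell lines.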

The compounds below were run on IST-MEL1 (assay: cleaved PARP positive nuclei fraction relative to DMSO control; melanoma cells; higher = more apoptosis). Details: library dose: low library concentration; 72 h.
In the case of `CC1(C)CCC(c2ccc(Cl)cc2)=C(CN2CCN(c3ccc(C(=O)NS(=O)(=O)c4ccc(N[C@H](CCN5CCOCC5)CSc5ccccc5)c(S(=O)(=O)C(F)(F)F)c4)cc3)CC2)C1` + COc1cc(N2CCC(N3CCN(C)CC3)CC2)ccc1Nc1ncc(Cl)c(Nc2ccccc2S(=O)(=O)C(C)C)n1 [NVP-TAE684] (first compound 0.4 µM, partner dose 0.08 µM), the “cleaved PARP positive nuclei fraction” value is reported as 91%.
With `Cn1sc(=O)n(Cc2ccccc2)c1=O` + CCN(CC)CCCCNc1ncc2cc(-c3cc(OC)cc(OC)c3)c(NC(=O)NC(C)(C)C)nc2n1 [PD173074] (first compound 0.4 µM, partner dose 0.1 µM) the “cleaved PARP positive nuclei fraction” value was 84.5%.
`CCN(CC)CCNC(=O)c1c(C)[nH]c(/C=C2\C(=O)Nc3ccc(F)cc32)c1C` [sunitinib] + CCCCCCCCCCCC1=C(O)C(=O)C=C(O)C1=O [Embelin] (first compound 0.4 µM, partner dose 1.2 µM) was tested, and the “cleaved PARP positive nuclei fraction” value was 88.3%.
In the case of `CN(c1ncccc1CNc1nc(Nc2ccc3c(c2)CC(=O)N3)ncc1C(F)(F)F)S(C)(=O)=O` + COc1ccc(-c2ccc3c(N4CCOCC4)nc(N4C[C@@H](C)O[C@@H](C)C4)nc3n2)cc1CO [KU0063794] (first compound 0.08 µM, partner dose 0.02 µM), the “cleaved PARP positive nuclei fraction” value is reported as 123%.
In the case of `CCN(CC)CCNC(=O)c1c(C)[nH]c(/C=C2\C(=O)Nc3ccc(F)cc32)c1C` [sunitinib] + CCN(CC)CCCCNc1ncc2cc(-c3cc(OC)cc(OC)c3)c(NC(=O)NC(C)(C)C)nc2n1 [PD173074] (first compound 0.4 µM, partner dose 0.1 µM), the “cleaved PARP positive nuclei fraction” value is reported as 62.9%.
